Values from PubChem BioAssay AID1159578 (Peter MacCallum Cancer Centre, 2015)
Aim: 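Genome-wide hunt for genes controlling movement of lymphatic endothelial cells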 (primary screen). Cell system: human lymphatic endothelial cells. Reagent: siRNA pool against human genes, 40 nM. Timing: 48 h after transfection. Read-out: 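High-content imaging of dye-stained cells in a scratch assay measures filled wound area and nuclei per well; duplicate means given as ratio to mock and robust z-score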. Direction: migration robust z-score: higher = faster migration into the scratch; migration relative to mock: higher = more scratch area covered than mock; nuclei per well: higher = more cells in the well. Call rule: 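Migration changed when robust z exceeds 2 or falls below -2 and mean nuclei number is at least 3300; otherwise not called changed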. Calls: active = migration changed; inactive = no migration change, or too few cells.
Here is an unselected part of about 18,000 deposited reagents. In the full data, about 1,030 (5.7%) are marked active. 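Inactive calls also include pools with fewer than 3300 nuclei, whose migration was not assessed.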 Raw values are not corrected between plates. No sequences are given here.

Gene,migration robust z-score,migration class with cell-count check,migration relative to mock,"nuclei per well, duplicate mean",activity call
RRP1B,0.02,migration z between -2 and 2; enough cells,0.88,5030,inactive
AKAP17A,-0.99,migration z between -2 and 2; enough cells,0.63,5646,inactive
STAMBPL1,0.05,migration z between -2 and 2; enough cells,0.82,4538,inactive
KCTD6,0.39,migration z between -2 and 2; enough cells,0.88,6054,inactive
TLCD5,-1.48,migration z between -2 and 2; enough cells,0.5,6062,inactive
IL20RA,1.12,migration z between -2 and 2; enough cells,1.02,4982,inactive
ADRB1,0.54,migration z between -2 and 2; enough cells,0.91,6456,inactive
ZNF79,0.37,migration z between -2 and 2; enough cells,0.98,4944,inactive
LMNA,0.16,migration z between -2 and 2; enough cells,0.84,6588,inactive
SDHAF2,2.56,migration z above 2; enough cells,1.54,5341,active
ELAVL4,-1.6,migration z between -2 and 2; enough cells,0.47,5200,inactive
IDUA,0.62,migration z between -2 and 2; enough cells,0.92,5797,inactive
AGPAT4,1.03,migration z between -2 and 2; enough cells,1.16,6866,inactive
NUP42,-1.5,migration z between -2 and 2; enough cells,0.5,5267,inactive

Hits (from the list above):
Gene,migration robust z-score,migration class with cell-count check,migration relative to mock,"nuclei per well, duplicate mean",activity call
SDHAF2,2.56,migration z above 2; enough cells,1.54,5341,active

Next entries follow.
Gene,migration robust z-score,migration class with cell-count check,migration relative to mock,"nuclei per well, duplicate mean",activity call
COX6B1,-9.42,under 3300 nuclei; migration not judged,-1.01,1338,inactive
VWF,-0.08,migration z between -2 and 2; enough cells,0.79,5542,inactive
TPTE2,-0.1,migration z between -2 and 2; enough cells,0.78,6264,inactive
GABRQ,0.18,migration z between -2 and 2; enough cells,0.84,5366,inactive
OTOF,1.04,migration z between -2 and 2; enough cells,1.16,5464,inactive
STXBP4,0.1,migration z between -2 and 2; enough cells,0.92,7333,inactive
HSPB2,0.4,migration z between -2 and 2; enough cells,0.99,4550,inactive
C3orf70,0.3,migration z between -2 and 2; enough cells,0.96,7310,inactive
ZNF169,1.05,migration z between -2 and 2; enough cells,1.16,6370,inactive
MTG2,0.77,migration z between -2 and 2; enough cells,1.08,4243,inactive
H2AX,-0.94,migration z between -2 and 2; enough cells,0.62,3808,inactive
MMP20,0.44,migration z between -2 and 2; enough cells,0.89,5012,inactive
LONRF2,-1.98,migration z between -2 and 2; enough cells,0.43,5555,inactive
NPDC1,-1.2,migration z between -2 and 2; enough cells,0.57,5002,inactive
TNFAIP1,0.05,migration z between -2 and 2; enough cells,0.82,4904,inactive
PAFAH1B2,-0.42,migration z between -2 and 2; enough cells,0.72,4886,inactive
KRTAP5-1,-1.4,migration z between -2 and 2; enough cells,0.52,3634,inactive
SPATA13,-0.42,migration z between -2 and 2; enough cells,0.78,5471,inactive
C1orf162,-1.52,migration z between -2 and 2; enough cells,0.49,4906,inactive
NDUFS6,-0.52,migration z between -2 and 2; enough cells,0.7,5908,inactive
OLIG3,0.04,migration z between -2 and 2; enough cells,0.9,5956,inactive
ZBTB2,1.31,migration z between -2 and 2; enough cells,1.23,5920,inactive
ERI2,-0.05,migration z between -2 and 2; enough cells,0.88,5517,inactive
SCRT1,-1.9,migration z between -2 and 2; enough cells,0.39,4928,inactive
TRIM54,0.13,migration z between -2 and 2; enough cells,0.83,5144,inactive
